# Screen size: about 300,000 compounds; about 3,700 (1.2%) were called active. Inconclusive means that the source gave no clear call. Such entries were picked first, then a sample of the others. Calls follow the shape of the full dose curve; tested in HEK293 cells. Where the call is inconclusive, the potency comes from a doubtful curve fit.
# Assay: qHTS for Inhibitors of binding or entry into cells for Lassa Virus; also: nearly all actives have a fitted effect of over 50% in size
# Settings: Lassa virus pseudotype entry inhibition, cell reporter; series mostly up to 37.9 µM
# Potency is read from the fitted curve at half-maximal effect.
row,Compound,Potency
1,COc1cccc(NC(=S)N2CCCC2)c1,"inconclusive: 32.6 µM [activator, partial curve, poor fit]"
2,Cc1ccc(CNC(=O)Cn2cccc2C(=O)c2ccccc2C)cc1,"inconclusive: 8.91 µM [inhibitor, partial curve, poor fit]"
3,O=C(CSc1nccn1Cc1ccccc1)Nc1ccc2c(c1)OCCO2,inactive
4,O=C(Cn1c(-c2cccs2)cc2ccccc21)NCCCN1CCN(c2ccccc2F)CC1,"inconclusive: 11.2 µM [inhibitor, single point]"
5,Cc1ccc(NC(=O)c2c(NC(=O)C(F)(F)F)sc3c2CCCCC3)cc1,"inconclusive: 1.78 µM [inhibitor, full curve, poor fit]"
6,CC(=O)NC1C(=O)Nc2c1cccc2C(F)(F)F (stereo unspecified),inactive
7,O=C(CN1C(=O)NC2(CCCC2)C1=O)OCc1ccc(Cl)cc1Cl,inactive
8,CCOC(=O)c1ccccc1NC(=O)Nc1ccc(OC)c(OC)c1,inactive
9,COC(=O)c1[nH]c2ccc(Cl)cc2c1NC(=O)CCN1CCOCC1,"inconclusive: 0.708 µM [inhibitor, full curve, poor fit]"
10,Cc1nc2ccccc2c(=O)n1-c1ccc(F)cc1,inactive
11,Cc1ccc(N2C(=O)NC(NC(=O)C3CC3)(C(F)(F)F)C2=O)cc1 (stereo unspecified),"inconclusive: 1 µM [activator, single point]"
12,COC(=O)C1=C(C(C)=O)C(c2ccc(C)cc2)n2nnnc2N1 (stereo unspecified),"inconclusive: 23.1 µM [inhibitor, partial curve, poor fit]"
13,Cc1ccc(/C=C/C(=O)c2ccc(N3CCOCC3)cc2)s1,"inconclusive: 2.24 µM [inhibitor, partial curve, poor fit]"
14,Cc1ccc(S(=O)(=O)N(CC(=O)O)Cc2ccccc2F)cc1,"inconclusive: 20.6 µM [activator, single point]"
15,O=C(COC(=O)c1ccccc1Nc1cccc(C(F)(F)F)c1)NCc1ccco1,"inconclusive: 25.9 µM [inhibitor, single point]"
16,CCOC(=O)Cn1cnc2c(cnn2-c2ccc(Cl)cc2)c1=O,"inconclusive: 35.5 µM [activator, single point]"
17,Cc1ccccc1NC(=O)CSc1ccc(-c2cccs2)nn1,inactive
18,Cc1cccc(NC(=O)c2ccc3c(c2)C(=O)N(c2ccccn2)C3=O)c1C,"inconclusive: 15.8 µM [activator, single point]"
19,COc1ccc(Cl)cc1NC(=O)CCn1c(=O)oc2ccccc21,"inconclusive: 5.62 µM [activator, single point]"
20,C/C(=N\NC(=O)C1CCCC1)c1ccc(Cl)cc1Cl,inactive
21,CNC(=S)N1N=C(c2ccc(C)cc2)CC1c1ccc(OC)c(OC)c1 (stereo unspecified),"inconclusive: 25.1 µM [inhibitor, single point]"
22,COc1ccc(CNC(=O)C(OC(=O)c2cccs2)C(C)C)cc1 (stereo unspecified),"inconclusive: 20 µM [inhibitor, single point]"

# By substructure: the compounds so far with an aryl thioether with sulfur outside any ring (2)
row,Compound,Potency
3,O=C(CSc1nccn1Cc1ccccc1)Nc1ccc2c(c1)OCCO2,inactive
17,Cc1ccccc1NC(=O)CSc1ccc(-c2cccs2)nn1,inactive

# Later entries.

row,Compound,Potency
1,O=C(Nc1ccc([N+](=O)[O-])cc1)C(Cc1ccccc1)N1C(=O)c2cccc3cccc(c23)C1=O (stereo unspecified),"inconclusive: 6.31 µM [inhibitor, full curve, poor fit]"
2,CC(=O)N/C(=N/c1nc(C)cc(C)n1)Nc1ccc(F)cc1F,"inconclusive: 1.26 µM [inhibitor, single point]"
3,N#C/C(=C\c1ccc(N2CCOCC2)o1)C(=O)N1CCOCC1,"inconclusive: 35.5 µM [activator, single point]"
4,C=CCn1c(SCC(=O)NC2CCS(=O)(=O)C2)nnc1-c1ccncc1 (stereo unspecified),inactive
5,CC1=C(C(=O)OC2CCCC2)C(c2ccccc2C(F)(F)F)CC(=O)N1 (stereo unspecified),inactive
6,COc1cccc(NC(=O)Cn2c(=O)n(-c3ccccc3)c(=O)c3c2c2cc(OC)ccc2n3C)c1,"inconclusive: 35.5 µM [activator, single point]"
7,CC(C)n1c(SCC(=O)c2ccc3c(c2)OCCO3)nc2c1c(=O)n(C)c(=O)n2C,"inconclusive: 25.9 µM [inhibitor, partial curve, poor fit]"
8,O=C(N/N=C/C1CCCCC1)c1ccccc1-n1cccc1,inactive
9,CCOc1ccc(N(Cc2ccc(OC)cc2)C(=O)c2ccco2)cc1,"inconclusive: 6.31 µM [inhibitor, partial curve, poor fit]"
10,COc1ccc(/C=N/n2c(N)c(S(=O)(=O)c3cccs3)c3nc4ccccc4nc32)cc1OC,inactive
11,CCOc1ccc(-c2[nH]nc3c2C(c2ccc4c(c2)OCO4)C(C#N)=C(N)O3)cc1OC (stereo unspecified),"inconclusive: 0.631 µM [inhibitor, partial curve, poor fit]"
12,O=S(=O)(c1ccccc1)N1N=C(c2cccs2)CC1c1ccc(F)cc1 (stereo unspecified),"inconclusive: 35.5 µM [inhibitor, single point]"
13,Cc1ccccc1CSCC(=O)Nc1ccccc1F,inactive
14,COCCn1c(C)cc(O)c(C(c2ccc(F)cc2)N2CCC(C)CC2)c1=O (stereo unspecified),inactive
15,Cn1c(SCc2ccccc2)nc2ccsc2c1=O,"inconclusive: 8.91 µM [inhibitor, partial curve, poor fit]"
16,CCOC(=O)N1CCN(C(=O)CSC2=NS(=O)(=O)c3ccccc3N2)CC1,"inconclusive: 35.5 µM [activator, single point]"
17,CCOC(=O)c1c(NC(=O)CN2C(=O)NC3(CCC(C)CC3)C2=O)sc(C)c1-c1ccc(C)cc1 (stereo unspecified),"inconclusive: 5.62 µM [inhibitor, single point]"
18,O=[N+]([O-])c1ccccc1S(=O)(=O)Nc1cccc2cccnc12,"inconclusive: 15.8 µM [inhibitor, partial curve, poor fit]"
19,Cc1ccc(NC(=O)C2CCCN(S(=O)(=O)c3c(C)noc3/C=C/N(C)C)C2)cc1F (stereo unspecified),"inconclusive: 32.6 µM [inhibitor, single point]"
20,O=C(C1CCC1)N1CCc2cc(S(=O)(=O)NC3CCCC3)ccc21,"inconclusive: 1.26 µM [activator, single point]"
21,CCOc1ccc(-n2nc3c(=S)[nH]nc(C)c3c2C)cc1,"inconclusive: 6.31 µM [inhibitor, single point]"
22,Cc1cccnc1-n1c(CCN2C(=O)c3ccccc3C2=O)nc2ccccc2c1=O,inactive

# Quoted from the results shown, 2 compounds:
row,Compound,Potency
9,COC(=O)c1[nH]c2ccc(Cl)cc2c1NC(=O)CCN1CCOCC1,"inconclusive: 0.708 µM [inhibitor, full curve, poor fit]"
10,Cc1nc2ccccc2c(=O)n1-c1ccc(F)cc1,inactive

# Further records:

row,Compound,Potency
1,COc1ccc(C(=O)N2CCN(Cc3ccc(OC)c(OC)c3)CC2)cc1,inactive
2,COc1ccc(OC)c(C2CC(c3ccc(NS(C)(=O)=O)cc3)=NN2C(=O)c2ccccc2)c1 (stereo unspecified),"inconclusive: 10.3 µM [inhibitor, partial curve, poor fit]"
3,COc1cccc(C(=O)N/N=C(/c2ccccc2)c2ccccn2)c1,"inconclusive: 10 µM [inhibitor, partial curve]"
4,Cc1nc(N2CCC(C)CC2)c2c(C)c(C(=O)Nc3ccc(C(F)(F)F)cc3)sc2n1,"inconclusive: 39.8 µM [inhibitor, partial curve, poor fit]"
5,CC1CCCCN1C(=O)Cn1cnc2cc([N+](=O)[O-])ccc2c1=O (stereo unspecified),inactive
6,COc1cccc(NC(=S)N2CCN(C(c3ccccc3)c3ccccc3)CC2)c1,"inconclusive: 14.1 µM [inhibitor, single point]"
7,CCOC(=O)c1ccccc1NC(=O)CSc1nc2ccccc2c(=O)n1CCCN1CCOCC1,"inconclusive: 10 µM [inhibitor, partial curve]"
8,NS(=O)(=O)c1ccc(Oc2ccc(S(N)(=O)=O)cc2)cc1,inactive
9,COc1ccc(N2C(=O)C3C(C2=O)C(C(=O)c2ccccc2)N2CCCC32)cc1 (stereo unspecified),"inconclusive: 2.82 µM [inhibitor, partial curve, poor fit]"
10,COc1cc(-c2nc3ccc(Cl)cn3c2Nc2ccc3c(c2)OCCO3)ccc1O,"inconclusive: 14.1 µM [inhibitor, single point]"
11,Cc1ccc(C(C)NC(=O)c2ccc3c(c2)OCCO3)cc1C (stereo unspecified),"inconclusive: 35.5 µM [inhibitor, single point]"
12,Cc1cccc(CSc2nnc3[nH]c(=O)cc(-c4ccccc4)n23)c1,"inconclusive: 0.891 µM [activator, partial curve, poor fit]"
13,Cn1cccc1C(=O)Nc1nc(-c2ccccn2)cs1,"inconclusive: 29.1 µM [inhibitor, single point]"
14,Cc1ccc(-c2nnc(SCC(=O)Nc3ccc(S(=O)(=O)N4CCCCCC4)cc3)o2)cc1,"inconclusive: 29.1 µM [inhibitor, single point]"
15,O=C(N/N=C/c1ccccc1)C(=O)N/N=C/c1ccccc1,inactive
16,c1cncc(-c2nc(NCCCN3CCOCC3)c3c4c(sc3n2)CCC4)c1,"inconclusive: 8.91 µM [inhibitor, partial curve, poor fit]"
17,COc1ccccc1N1CCN(C(=O)CSc2ccc3c(C)cc(C)nc3n2)CC1,"inconclusive: 23.1 µM [inhibitor, partial curve, poor fit]"
18,COc1ccccc1CNC(=O)c1nnn(CC(=O)Nc2c(C)cccc2C)c1N,"inconclusive: 7.08 µM [activator, full curve]"
19,CCCN1Cc2cccc(C(=O)NCc3ccc(C)cc3)c2C1=O,"inconclusive: 0.0046 µM [inhibitor, full curve, poor fit]"
20,CSc1ccccc1NC(=O)CN(C)Cc1cccc(Cl)c1,"inconclusive: 8.91 µM [inhibitor, partial curve, poor fit]"
21,Cc1ccc(OCC(=O)Nc2cccc(C(=O)OCc3cc(=O)n4c(C)csc4n3)c2)cc1,"inconclusive: 15.8 µM [inhibitor, single point]"
22,CCOc1ccccc1NC(=O)c1c(NC(=O)Cc2ccc(OC)cc2)sc2c1CCC2,inactive

# From PubChem BioAssay AID540256 (National Center for Advancing Translational Sciences (NCATS), 2011)
